Our source for the binding values is US20120321614A1 (Amgen, published 2012).

Where a chain is given by its changes, count along the chain named. These are yes or no findings as the source states them, for the method shown. Some binding calls cover weakened binding; strength is not graded here.

For this test, the target named is c-Met expressed on the surface of cynomolgus kidney cells (cynomolgus). Kind of test: flow cytometry on cynomolgus kidney cells. (A flow cytometer gives signals particle by particle.)

B1: anti-c-Met monoclonal antibody 9.1.2 (antibody, V domains shown)
VH: QVQLQESGPGLVKPSQTLSLTCTVSGGSISSGGYYWSWIRQHPGKGLEWIGYIYYSGSTYYNPSLKSRVTISVDTSKNQFSLKLSSVTAADTAVYYCARDGPLGYCSSTSCPVTGEYYYYGMDVWGQGTTVTVSS
VL: EIVLTQSPGTLSLSPGERATLSCRASQSVSNNYLAWYQQKPGQAPRLLIFGASSRATGIPDRFSGSGSGTDFTLTISRLEPEDFAVYYCQQYDISPMYSFGQGTKLEMKR
notes: Human IgG2 kappa; also called hybridoma 9.1.2 (LN 15884); PTA-5027
In the case of B1, the binding entry is listed as “binds”.

B2: anti-c-Met monoclonal antibody 8.70.2 (antibody, V domains shown)
VH: QLQLQESGPGLVKPSETLSLTCTVSGGSISSSSYYGGWIRQPPGKGLDWIGSIYYSGNTYYNPSLKSRVTISVDTSKNQFSLKLSSVTAADTAVYYCARHSWDYFDYWDQGTLVTVSS
VL: DIQMTQSPSSVSASVGDRVTITCRASQGISSWLAWYQQKPGKAPKLLIYAASSLQSGVPSRFSGSGSGTDFTLTISSLQSEDFATYYCQQANSFPITFGPGTKVEIKR
notes: Human IgG2 kappa; also called hybridoma 8.70.2 (LN 15885); PTA-5028
In the case of B2, the binding result was “binds”.

B3: anti-c-Met monoclonal antibody 8.90.3 (antibody, V domains shown)
VH: EVQLVESGGGLVQPGGSLRLSCAASGFTFSRYSMNWVRQAPGKGLEWVSYISSRSSTIYYADSVKGRFTMSRDNAKNSLYMQMNSLRDEDTAVYYCGYGDYDYFDYWGQGTLVTVSS
VL: B2 VL with T20I, Q55K, L73V, S80P, A91S, F94L, I96W, P100Q
notes: Human IgG2 kappa
On to B3, for which the binding entry is recorded as “binds”.
